In patent US20230272011A1:
Results are given in words; binding and its absence hold for the method and conditions named. Some binding calls cover weakened binding; strength is not graded here. For some of these results: Sequences can lack the tags named with a protein.

Chains of the proteins cited; added tags and fusions are not shown. Lines headed by an entry give the natural chain unless they say otherwise; changes in a name come on top. Residues count along the entry.
UniProt P02768, residues 25-609: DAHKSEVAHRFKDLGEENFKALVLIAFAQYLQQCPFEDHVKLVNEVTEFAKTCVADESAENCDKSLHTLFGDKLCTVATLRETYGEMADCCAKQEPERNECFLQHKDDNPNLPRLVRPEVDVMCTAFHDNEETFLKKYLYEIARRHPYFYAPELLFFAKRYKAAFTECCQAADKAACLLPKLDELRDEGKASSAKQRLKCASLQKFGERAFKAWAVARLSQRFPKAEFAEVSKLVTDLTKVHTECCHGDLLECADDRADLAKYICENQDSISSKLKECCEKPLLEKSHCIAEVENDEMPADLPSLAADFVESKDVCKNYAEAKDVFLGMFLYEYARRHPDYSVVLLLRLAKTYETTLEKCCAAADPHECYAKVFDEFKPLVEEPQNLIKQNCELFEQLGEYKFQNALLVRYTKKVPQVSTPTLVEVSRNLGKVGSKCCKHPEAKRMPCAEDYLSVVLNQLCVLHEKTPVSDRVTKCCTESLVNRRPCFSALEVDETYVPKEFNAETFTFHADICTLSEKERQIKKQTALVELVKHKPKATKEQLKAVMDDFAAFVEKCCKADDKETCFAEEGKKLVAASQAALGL
UniProt P07724, residues 25-608: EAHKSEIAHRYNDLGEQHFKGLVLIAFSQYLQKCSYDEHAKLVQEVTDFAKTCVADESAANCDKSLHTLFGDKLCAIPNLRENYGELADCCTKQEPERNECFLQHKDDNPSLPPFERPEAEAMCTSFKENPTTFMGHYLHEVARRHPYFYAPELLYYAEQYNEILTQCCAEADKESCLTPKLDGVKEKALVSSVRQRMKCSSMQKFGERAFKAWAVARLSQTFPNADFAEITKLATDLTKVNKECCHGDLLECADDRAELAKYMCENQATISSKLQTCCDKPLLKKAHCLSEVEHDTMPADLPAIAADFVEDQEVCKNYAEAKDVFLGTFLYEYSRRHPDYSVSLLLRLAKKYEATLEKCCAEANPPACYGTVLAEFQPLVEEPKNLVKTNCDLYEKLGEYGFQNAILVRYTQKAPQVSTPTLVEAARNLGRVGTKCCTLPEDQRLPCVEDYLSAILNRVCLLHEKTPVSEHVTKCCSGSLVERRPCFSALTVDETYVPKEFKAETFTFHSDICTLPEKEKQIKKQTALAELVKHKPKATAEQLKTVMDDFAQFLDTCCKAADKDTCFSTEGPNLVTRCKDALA
UniProt Q9NZQ7, residues 19-239: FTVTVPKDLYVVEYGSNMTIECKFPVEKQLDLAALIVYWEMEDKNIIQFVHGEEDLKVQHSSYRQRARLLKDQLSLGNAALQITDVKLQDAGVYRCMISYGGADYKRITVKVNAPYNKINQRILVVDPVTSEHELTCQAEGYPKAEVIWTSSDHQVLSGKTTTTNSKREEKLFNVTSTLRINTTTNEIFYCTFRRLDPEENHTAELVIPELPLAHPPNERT
UniProt Q9EP73: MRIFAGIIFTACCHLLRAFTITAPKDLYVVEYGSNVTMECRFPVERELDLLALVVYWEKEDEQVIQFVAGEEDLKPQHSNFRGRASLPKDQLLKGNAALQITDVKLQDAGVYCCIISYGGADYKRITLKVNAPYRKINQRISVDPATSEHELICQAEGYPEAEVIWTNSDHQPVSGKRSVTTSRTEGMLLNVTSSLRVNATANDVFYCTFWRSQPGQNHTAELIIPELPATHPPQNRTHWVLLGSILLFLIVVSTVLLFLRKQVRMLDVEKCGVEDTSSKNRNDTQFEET

Columns and labels:
[1] = target: human serum albumin (human) (UniProt P02768); assay: BLI (Octet), pH 7.4
[2] = target: mouse serum albumin (mouse) (UniProt P07724); assay: BLI (Octet), pH 7.4
[3] = target: human PD-L1-Fc (R&D Systems) chimeric protein (human) (UniProt Q9NZQ7); assay: binding ELISA, coated human PD-L1-Fc
mPD-L1 (mouse) = mPD-L1 (mouse) (UniProt Q9EP73); assay: competitive ELISA (mPD-1/mPD-L1), Affimer pre-incubated with mPD-L1

B1: HSA-41, C-terminal 6x His tag cleaved (designed binder)
chain: MIPRGLSEAKPATPEIQEIVDKVKPQLEEKTNETYGKLEAVQYKTQVLANFFQRRWPGSTNYYIKVRAGDNKYMHLKVFNGPWKFRNTDRGADRVLTGYQVDKNKDDELTGFEQKLISEEDL
binding [1]: binds
binding [2]: binds

B2: AVA04-251 BH (designed binder)
chain: MIPRGLSEAKPATPEIQEIVDKVKPQLEEKTNETYGKLEAVQYKTQVLAREGRQDWVLSTNYYIKVRAGDNKYMHLKVFNGPWVPFPHQQLADRVLTGYQVDKNKDDELTGFAEAAAKEAAAKEAAAKEAAAKEAAAKEAAAKMIPRGLSEAKPATPEIQEIVDKVKPQLEEKTNETYGKLEAVQYKTQVLAREGRQDWVLSTNYYIKVRAGDNKYMHLKVFNGPWVPFPHQQLADRVLTGYQVDKNKDDELTGFHHHHHH
binding [3]: binds

B3: AVA04-182 XT20 (designed binder)
chain: MIPRGLSEAKPATPEIQEIVDKVKPQLEEKTNETYGKLEAVQYKTQVLAFALPEFEYMSTNYYIKVRAGDNKYMHLKVFNGPPMIRRKNEVADRVLTGYQVDKNKDDELTGFAEAAAKEAAAKEAAAKEAAAKEAAAKEAAAKMIPRGLSEAKPATPEIQEIVDKVKPQLEEKTNETYGKLEAVQYKTQVLAFALPEFEYMSTNYYIKVRAGDNKYMHLKVFNGPPMIRRKNEVADRVLTGYQVDKNKDDELTGFAEAAAKEAAAKEAAAKEAAAKEAAAKEAAAKMIPRGLSEAKPATPEIQEIVDKVKPQLEEKTNETYGKLEAVQYKTQVLANFFQRRWPGSTNYYIKVRAGDNKYMHLKVFNGPWKFRNTDRGADRVLTGYQVDKNKDDELTGFHHHHHH
binding (mPD-L1 (mouse)): binds
